Source: patent publication US20070178045A1 (priority 2004, published 2007)

Assay: general procedure: Fmoc solid-phase peptide synthesis; Fmoc-Gly-Res
Settings: whole synthesis, scale 0.69 mmol

With c[Arg-Gly-Asp-D-Phe-Aad) the isolated mass was 187 mg.
